Test results from patent US20060034807A1, “Innervated artificial tissues and uses thereof” (Ottawa Health Research Institute, priority 2002, published 2006).
For at least one compound, name, drawing or mass did not settle the structure.

Tested on: innervated TE cornea constructs
Test: Substance P release from innervated TE corneas (EIA)
Format: cell-based, chick
Details: 1% capsaicin or 50 μM veratridine, P<0.05
Method: To elicit a functional response such as SP release, innervated TE cornea constructs were treated with capsaicin or veratridine. Briefly, innervated tissue engineered corneas were treated with a total of 1.5 ml of SHEM containing 8.5% Tween 80 and 1.5% ethanol either alone (control) or with 1) 1% (w/v) capsaicin, or 2) 50 μM veratridine. At 0, 1, 3, 6, 12 and 24 hours post-treatment, culture supernatants were collected, flash frozen in liquid nitrogen and stored at −80° C. Substance P content of the medium was measured using a substance P specific competitive peptide enzyme immunoassay (EIA) kit (Peninsula Laboratories). […] All groups, n 3. *P<0.001 versus control (2-way ANOVA).

COc1ccc(C(=O)O[C@H]2CC[C@@]3(C)[C@@H]4CC[C@H]5[C@]6(O)C[C@H](O)[C@@]7(O)[C@@H](CN8C[C@@H](C)CC[C@H]8[C@@]7(C)O)[C@]6(O)C[C@@]53O[C@]24O)cc1OC [veratridine]
SP release versus controls (6 hours post-treatment): only capsaicin elicited a significant increase | SP release versus controls (24 hours post-treatment): significant increase
